Results taken from publication PMC11735090.
These are yes or no findings as the source states them, for the method shown. Binding seen in cells or lysates may run through a third protein. A yes stands for co-enrichment or nearness to the bait. Other partners may have been found.

Sequences of proteins named here, by UniProt entry; tags and fusion partners are left off.
UniProt Q501J6: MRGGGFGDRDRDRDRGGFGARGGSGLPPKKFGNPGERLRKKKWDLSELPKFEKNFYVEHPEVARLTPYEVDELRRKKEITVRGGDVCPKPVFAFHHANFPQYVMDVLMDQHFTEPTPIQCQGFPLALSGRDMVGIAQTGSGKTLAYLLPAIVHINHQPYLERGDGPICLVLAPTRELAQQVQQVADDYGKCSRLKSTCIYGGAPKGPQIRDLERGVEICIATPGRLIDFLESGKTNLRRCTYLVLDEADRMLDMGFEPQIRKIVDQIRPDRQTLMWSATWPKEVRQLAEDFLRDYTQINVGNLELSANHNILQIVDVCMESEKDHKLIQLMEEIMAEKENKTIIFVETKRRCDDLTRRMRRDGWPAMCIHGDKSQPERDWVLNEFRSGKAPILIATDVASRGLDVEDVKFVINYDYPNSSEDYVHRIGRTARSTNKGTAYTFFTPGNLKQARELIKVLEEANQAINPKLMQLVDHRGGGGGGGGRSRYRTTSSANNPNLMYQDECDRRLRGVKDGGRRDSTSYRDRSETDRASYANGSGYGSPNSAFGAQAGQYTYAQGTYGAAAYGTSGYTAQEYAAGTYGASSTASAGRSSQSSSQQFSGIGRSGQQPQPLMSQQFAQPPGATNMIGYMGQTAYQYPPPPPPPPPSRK

Molecular target: T1, MEKK1 (gene product of Map3k1), full-length wild type (mouse) (UniProt P53349)
T1 sequence: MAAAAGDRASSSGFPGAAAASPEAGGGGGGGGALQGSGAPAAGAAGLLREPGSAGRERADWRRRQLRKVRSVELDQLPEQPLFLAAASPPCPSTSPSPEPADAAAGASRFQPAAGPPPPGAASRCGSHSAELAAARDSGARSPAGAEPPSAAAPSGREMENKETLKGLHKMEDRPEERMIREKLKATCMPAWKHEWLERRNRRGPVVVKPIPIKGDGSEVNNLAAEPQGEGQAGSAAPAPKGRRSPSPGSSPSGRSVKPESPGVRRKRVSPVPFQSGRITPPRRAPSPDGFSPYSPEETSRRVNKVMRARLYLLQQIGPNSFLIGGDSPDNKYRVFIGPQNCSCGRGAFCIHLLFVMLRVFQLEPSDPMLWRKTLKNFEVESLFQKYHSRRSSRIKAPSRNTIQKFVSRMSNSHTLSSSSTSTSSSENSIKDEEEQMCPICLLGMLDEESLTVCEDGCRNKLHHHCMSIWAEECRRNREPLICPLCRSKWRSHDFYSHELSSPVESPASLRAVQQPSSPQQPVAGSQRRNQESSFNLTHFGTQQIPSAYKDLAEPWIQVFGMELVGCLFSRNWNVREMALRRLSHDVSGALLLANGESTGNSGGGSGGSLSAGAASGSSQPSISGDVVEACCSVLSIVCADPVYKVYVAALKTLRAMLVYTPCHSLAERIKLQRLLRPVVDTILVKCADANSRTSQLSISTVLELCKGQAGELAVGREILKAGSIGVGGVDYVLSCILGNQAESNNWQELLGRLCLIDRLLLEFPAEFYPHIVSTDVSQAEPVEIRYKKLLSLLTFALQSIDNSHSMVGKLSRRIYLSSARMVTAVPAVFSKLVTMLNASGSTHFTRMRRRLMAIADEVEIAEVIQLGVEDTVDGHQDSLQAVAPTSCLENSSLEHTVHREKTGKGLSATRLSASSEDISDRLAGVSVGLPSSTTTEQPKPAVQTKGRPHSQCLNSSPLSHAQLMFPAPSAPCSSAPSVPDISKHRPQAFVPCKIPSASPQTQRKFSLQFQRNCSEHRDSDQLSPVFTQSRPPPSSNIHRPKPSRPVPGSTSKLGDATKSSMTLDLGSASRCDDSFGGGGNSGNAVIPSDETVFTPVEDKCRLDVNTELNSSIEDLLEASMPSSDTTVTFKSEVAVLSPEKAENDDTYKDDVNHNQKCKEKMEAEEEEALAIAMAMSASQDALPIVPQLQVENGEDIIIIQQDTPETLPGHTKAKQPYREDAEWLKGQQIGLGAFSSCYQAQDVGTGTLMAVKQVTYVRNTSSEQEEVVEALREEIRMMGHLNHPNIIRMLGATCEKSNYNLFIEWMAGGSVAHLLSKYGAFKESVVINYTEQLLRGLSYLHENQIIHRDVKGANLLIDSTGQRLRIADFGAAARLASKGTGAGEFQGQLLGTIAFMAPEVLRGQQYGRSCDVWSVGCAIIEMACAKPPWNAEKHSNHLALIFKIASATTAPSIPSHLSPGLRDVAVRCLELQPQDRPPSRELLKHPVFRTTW
Test: affinity purification with mass spectrometry; IP with FLAG antibodies from lysates of 67NR-OVA cells with varying Map3k1 status, after 24 h coculture with OT-I splenocytes; in-gel digestion and mass spectrometry

binding: binds
Substance: DEAD box helicase 17 (DDX17) (from UniProt Q501J6 1-650)
